Values from PubChem BioAssay AID652243 (Drosophila RNAi Screening Center, 2013)

Assay: 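Fly regulators of androgen-dependent reporter output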 (primary screen)
System: Drosophila S2R+ cells
Knock-down reagent: long dsRNA against Drosophila genes
Time to read-out: 72 h (48 h, then 24 h hormone)
Conditions: synthetic androgen R1881 at 10 nM for 24 h
Measurement: 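Per-well raw luminescence of the androgen-driven firefly reporter and of the Renilla control, two replicates each, without normalisation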
Direction: firefly reporter light: higher = more light from androgen-responsive reporter; Renilla control light: higher = more constitutive control signal (cell number, transfection)
Active means: 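Across duplicate plates, a knock-down whose log firefly/Renilla ratio shifted a set fold down or up from the GFP/LacZ control mean was a hit; the downward cut appears as both 1.5 and 3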
Meaning of the calls: active = hit: reporter lowered or raised; inactive = no hit
The deposit covers about 24,000 reagents; below is an unselected part of those with a known target gene and a result. Of all reagents, 246 (1%) are marked active. 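Plates not normalised; calls are printed but the firefly/Renilla ratio behind them is not deposited; fold cut for lowering reported inconsistently.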 Raw values are not corrected between plates. Not stated in the record: the amount of reagent.

no.	gene	DRSC id	firefly reporter light, replicate 1	firefly reporter light, replicate 2	Renilla control light, replicate 1	Renilla control light, replicate 2	Outcome
1	CG13065	DRSC09948	2.03e5	1.38e5	1.84e6	1.34e6	inactive
2	CG13065	DRSC28005	5.01e5	3.93e5	1.49e6	1.54e6	inactive
3	beat-IV	DRSC14195	48781	54831	5.01e5	6.32e5	inactive
4	beat-IV	DRSC14673	2.23e5	1.96e5	2.35e6	2.26e6	inactive
5	CG13044	DRSC09925	2.62e5	2.43e5	2.84e6	1.90e6	inactive
6	CG13044	DRSC28609	3.69e5	4.64e5	1.65e6	1.77e6	inactive
7	mus304	DRSC11372	2.00e5	1.73e5	1.65e6	2.01e6	inactive
8	egh	DRSC18771	2.34e5	2.58e5	1.75e6	2.37e6	inactive
9	egh	DRSC29898	7.05e5	7.47e5	1.17e6	1.44e6	inactive
10	Ankle2	DRSC20105	24332	42579	7.39e5	8.20e5	inactive
11	Ankle2	DRSC20106	4.23e5	4.47e5	3.77e6	3.61e6	inactive
12	CG13108	DRSC02206	81329	1.21e5	1.27e6	1.05e6	inactive
13	CkIIalpha-i1	DRSC11115	3.22e5	2.21e5	2.52e6	1.81e6	inactive
14	CG31482	DRSC12582	57736	92239	1.35e6	1.28e6	inactive
15	CG5111	DRSC15717	1.99e5	2.61e5	2.06e6	1.94e6	inactive
16	CG9747	DRSC16554	3.12e5	3.27e5	3.37e6	4.08e6	inactive
17	CG9747	DRSC23910	7.03e5	7.13e5	9.64e5	9.78e5	inactive
18	CG11698	DRSC14355	4.92e5	5.43e5	1.71e6	3.00e6	inactive
19	polo	DRSC11384	3.02e5	3.95e5	2.37e6	3.02e6	inactive
20	polo	DRSC22359	5.18e5	4.27e5	1.02e6	9.77e5	inactive
21	polo	DRSC37001					inactive
22	polo	DRSC38944	6.81e5	5.18e5	1.77e6	1.22e6	inactive
23	O-fut1	DRSC06138	9.92e5	5.37e5	3.00e6	2.05e6	inactive
24	O-fut1	DRSC26476	63267	67030	1.17e5	85568	inactive
25	UQCR-Q	DRSC10886	3.68e5	2.90e5	1.79e6	2.23e6	inactive
26	CG17192	DRSC15186	1.42e5	1.89e5	1.39e6	1.91e6	inactive
27	CG17192	DRSC24691	9.11e5	9.24e5	8.49e5	7.31e5	inactive
28	PK2-R1	DRSC16447	6760	31319	2.39e5	2.98e5	inactive
29	PK2-R1	DRSC24363	1.08e6	1.35e6	1.21e6	1.33e6	inactive
30	kmr	DRSC14827	61992	1.18e5	1.86e6	2.69e6	inactive
31	kmr	DRSC14828	1.05e5	1.06e5	1.66e6	2.26e6	inactive
32	kmr	DRSC16472	73934	27266	2.26e5	2.05e5	inactive
33	kmr	DRSC25867	4.24e5	4.56e5	9.51e5	8.78e5	inactive
34	kmr	DRSC28945	4.79e5	7.53e5	9.61e5	1.09e6	inactive
35	CG4282	DRSC06865	7.51e5	4.66e5	1.01e6	9.30e5	inactive
36	CG10366	DRSC02046	1.27e6	1.94e6	2.09e6	2.68e6	inactive
37	CG10366	DRSC26463	2.98e5	3.10e5	5.57e5	4.57e5	inactive
38	COX6CL	DRSC00895	2.62e5	1.54e5	5.88e5	6.49e5	inactive
39	Sras	DRSC11287	2.08e5	1.82e5	2.62e6	1.64e6	inactive
40	CG10911	DRSC06008	63698	93449	1.46e6	1.46e6	inactive
41	E(spl)m7-HLH	DRSC16696	1.49e5	2.02e5	2.07e6	2.21e6	inactive
42	E(spl)m7-HLH	DRSC29451	4.26e5	4.21e5	8.47e5	8.47e5	inactive
43	PGAP5	DRSC03089	1.97e5	2.42e5	1.97e6	1.79e6	inactive
44	PGAP5	DRSC27504	2.12e5	2.24e5	7.41e5	7.00e5	inactive
45	CG12725	DRSC19501	5.61e5	5.64e5	3.34e6	4.36e6	inactive
46	CG12725	DRSC24026	1.01e6	1.04e6	1.07e6	9.81e5	inactive
47	lov	DRSC04665	7.45e5	7.53e5	1.82e6	1.78e6	inactive
48	lov	DRSC27208	3.51e5	1.92e5	6.31e5	3.15e5	inactive
49	Or33c	DRSC03388	2.08e5	2.56e5	1.17e6	1.37e6	inactive
50	CG15673	DRSC04263	2.03e5	2.27e5	1.46e6	1.60e6	inactive
51	CG13471	DRSC10015	2.16e5	2.17e5	2.21e6	2.09e6	inactive
52	CG15286	DRSC23386	7.90e5	8.28e5	9.26e5	8.95e5	inactive
53	CycY	DRSC02420	9.63e5	9.37e5	2.66e6	2.37e6	inactive
54	CycY	DRSC25092	6.73e5	7.92e5	8.78e5	1.15e6	inactive
55	CycY	DRSC39018	2.84e5	3.63e5	1.11e6	8.79e5	inactive
56	Rtnl1	DRSC00851	1.88e5	1.59e5	4.95e5	5.18e5	inactive
57	Rtnl1	DRSC02684	6.00e5	8.24e5	1.62e6	2.59e6	inactive
58	Rtnl1	DRSC03122	7.66e5	6.76e5	1.23e6	1.08e6	inactive
59	Rtnl1	DRSC21698	8.50e5	7.35e5	2.73e6	2.19e6	inactive
60	Blos3	DRSC09573	4.38e5	5.14e5	2.49e6	3.65e6	inactive
61	CG2811	DRSC04318	3.20e5	2.82e5	1.81e6	1.31e6	inactive
62	CG14273	DRSC02377	1.23e5	1.47e5	2.01e6	2.06e6	inactive
63	CG14273	DRSC27247	5.80e5	5.57e5	5.01e5	4.40e5	inactive
64	Lsm12a	DRSC19702	6.29e5	5.42e5	3.30e6	3.54e6	inactive
65	Ufsp2	DRSC10231	1.02e5	38695	9.90e5	3.72e5	inactive
66	PIG-X	DRSC22721	3.80e5	4.51e5	1.77e6	1.89e6	inactive
67	AGO1	DRSC05912	7.90e5	6.37e5	1.30e6	1.31e6	inactive
68	AGO1	DRSC39159	3.16e5	3.04e5	1.29e6	1.27e6	inactive
69	Dek	DRSC07418	3.80e5	3.51e5	9.71e5	1.01e6	inactive
70	Dek	DRSC23928	5.75e5	2.98e5	5.05e5	4.23e5	inactive
71	CG34426	DRSC09977	2.22e5	2.90e5	2.76e6	2.27e6	inactive
72	Acsx2	DRSC14308	1.83e5	3.57e5	2.57e6	3.24e6	inactive
73	CG31861	DRSC21665	6.62e5	5.88e5	2.92e6	2.42e6	inactive
74	CG31861	DRSC29279	6.99e5	3.89e5	1.06e6	8.69e5	inactive

Reformatted: entries from further up.
gene | DRSC id | firefly reporter light, replicate 1 | firefly reporter light, replicate 2 | Renilla control light, replicate 1 | Renilla control light, replicate 2 | Outcome
CG13471 | DRSC10015 | 2.16e5 | 2.17e5 | 2.21e6 | 2.09e6 | inactive
CG15286 | DRSC23386 | 7.90e5 | 8.28e5 | 9.26e5 | 8.95e5 | inactive
CycY | DRSC02420 | 9.63e5 | 9.37e5 | 2.66e6 | 2.37e6 | inactive
CycY | DRSC25092 | 6.73e5 | 7.92e5 | 8.78e5 | 1.15e6 | inactive
CycY | DRSC39018 | 2.84e5 | 3.63e5 | 1.11e6 | 8.79e5 | inactive
Rtnl1 | DRSC00851 | 1.88e5 | 1.59e5 | 4.95e5 | 5.18e5 | inactive
Rtnl1 | DRSC02684 | 6.00e5 | 8.24e5 | 1.62e6 | 2.59e6 | inactive
Rtnl1 | DRSC03122 | 7.66e5 | 6.76e5 | 1.23e6 | 1.08e6 | inactive
Rtnl1 | DRSC21698 | 8.50e5 | 7.35e5 | 2.73e6 | 2.19e6 | inactive
Blos3 | DRSC09573 | 4.38e5 | 5.14e5 | 2.49e6 | 3.65e6 | inactive
CG2811 | DRSC04318 | 3.20e5 | 2.82e5 | 1.81e6 | 1.31e6 | inactive
CG14273 | DRSC02377 | 1.23e5 | 1.47e5 | 2.01e6 | 2.06e6 | inactive
